# Laboratory results taken from PubChem BioAssay AID248 (DTP/NCI, 2004).
# The list does not hold the whole screen: it gathers some chemical classes. Not every dose and run of a compound is shown. T/C is the treated group as % of the vehicle group. Some entries give survivors of the animals treated and no T/C: the source holds a T/C of zero for them, seemingly a mark for toxic or unscored doses. Some survivor counts are full or nearly so, which does not show that the dose was tolerated: survival well below the control is almost never listed, so the zero probably covers shortened survival too. Counts of survivors are from the toxicity check (mostly the fifth day) where no day follows; animals may have died later. Schedule codes are those of the source, read here as Q, the interval in days (D) or hours (H), X, the number of doses. For survival time, the PubChem record calls one and a half times the control and up active, and a quarter to a half above the control has no call in these data; cut-offs in other NCI protocols can differ. Some entries show no survivor count and are marked so; the dose need not have been tolerated. Some T/C values carry the count of animals alive at the toxicity check (mostly the fifth day); without a count or a note in brackets, all were alive then.
# System: L1210 leukemia ip in BDF1 mice, survival T/C
# Test: NCI In Vivo Anticancer Drug Screen. Data for tumor model L1210 Leukemia (intraperitoneal) in B6D2F1 (BDF1) mice
# Settings: T/C endpoint: mean survival time, higher T/C = longer survival
# [1] = dose: 100.0 mg/kg/injection, schedule: Q01DX001 (ip), vehicle: carboxymethylcellulose (CMC)
# [2] = dose: 200.0 mg/kg/injection, schedule: Q01DX001 (ip), vehicle: carboxymethylcellulose (CMC)
# [3] = dose: 400.0 mg/kg/injection, schedule: Q01DX001 (ip), vehicle: carboxymethylcellulose (CMC)
# [4] = dose: 100.0 mg/kg/injection, schedule: Q04DX002 (ip), vehicle: saline
# [5] = dose: 200.0 mg/kg/injection, schedule: Q04DX002 (ip), vehicle: saline
# [6] = dose: 400.0 mg/kg/injection, schedule: Q04DX002 (ip), vehicle: saline
# [7] = dose: 100.0 mg/kg/injection, schedule: Q04DX003 (ip), vehicle: Klucel (hydroxypropylcellulose) (HPC)
# [8] = dose: 200.0 mg/kg/injection, schedule: Q04DX003 (ip), vehicle: Klucel (hydroxypropylcellulose) (HPC)
# [9] = dose: 400.0 mg/kg/injection, schedule: Q04DX003 (ip), vehicle: Klucel (hydroxypropylcellulose) (HPC)
# [10] = dose: 100.0 mg/kg/injection, schedule: Q01DX001 (ip), vehicle: saline
# [11] = dose: 200.0 mg/kg/injection, schedule: Q01DX001 (ip), vehicle: saline
# [12] = dose: 400.0 mg/kg/injection, schedule: Q01DX001 (ip), vehicle: saline
compound,measurement,setting,value
CCCc1cccc2nc(-c3ccccc3)oc12.O=C1c2cc([N+](=O)[O-])ccc2-c2c1cc([N+](=O)[O-])cc2[N+](=O)[O-],T/C,"dose: 6.25 mg/kg/injection, schedule: Q04DX002 (ip), vehicle: saline with Tween-80",88 % of control [survivor count not shown]
same,T/C,"dose: 12.5 mg/kg/injection, schedule: Q04DX002 (ip), vehicle: saline with Tween-80",94 % of control [survivor count not shown]
same,T/C,"dose: 25.0 mg/kg/injection, schedule: Q04DX002 (ip), vehicle: saline with Tween-80",98 % of control [survivor count not shown]
same,T/C,"dose: 100.0 mg/kg/injection, schedule: Q01DX001 (ip), vehicle: saline with Tween-80",86 % of control [survivor count not shown]
ClCCN1c2ccccc2Sc2ccccc21,T/C,[1],100 % of control
same,T/C,[2],94 % of control
same,T/C,[3],94 % of control
FC1(F)SC(Cl)C(Cl)(Cl)C1(F)F (stereo not given),T/C,[4],97 % of control
same,T/C,[5],97 % of control
same,survivor count,[6],3 of 3
COc1cc(OC)c(Nc2c([N+](=O)[O-])cc([N+](=O)[O-])cc2[N+](=O)[O-])cc1Cl,T/C,"dose: 100.0 mg/kg/injection, schedule: Q01DX009 (ip), vehicle: saline",91 % of control
same,T/C,"dose: 200.0 mg/kg/injection, schedule: Q01DX009 (ip), vehicle: saline",93 % of control
same,T/C,"dose: 400.0 mg/kg/injection, schedule: Q01DX009 (ip), vehicle: saline",96 % of control
ClCCNc1nc2ccccc2c2ccccc12,T/C,"dose: 10.0 mg/kg/injection, schedule: Q04DX003 (ip), vehicle: Klucel (hydroxypropylcellulose) (HPC)",109 % of control
same,T/C,"dose: 18.7 mg/kg/injection, schedule: Q01DX009 (ip), vehicle: carboxymethylcellulose (CMC)",104 % of control
same,T/C,"dose: 20.0 mg/kg/injection, schedule: Q04DX003 (ip), vehicle: Klucel (hydroxypropylcellulose) (HPC)",106 % of control
same,T/C,"dose: 37.5 mg/kg/injection, schedule: Q01DX009 (ip), vehicle: carboxymethylcellulose (CMC)",107 % of control
same,T/C,"dose: 40.0 mg/kg/injection, schedule: Q04DX003 (ip), vehicle: Klucel (hydroxypropylcellulose) (HPC)",105 % of control
same,T/C,"dose: 50.0 mg/kg/injection, schedule: Q01DX009 (ip), vehicle: Klucel (hydroxypropylcellulose) (HPC)",113 % of control
same,survivor count,"dose: 50.0 mg/kg/injection, schedule: Q04DX003 (ip), vehicle: Klucel (hydroxypropylcellulose) (HPC)",6 of 6
same,T/C,"dose: 75.0 mg/kg/injection, schedule: Q01DX001 (ip), vehicle: carboxymethylcellulose (CMC)",106 % of control
same,survivor count,"dose: 75.0 mg/kg/injection, schedule: Q01DX009 (ip), vehicle: Klucel (hydroxypropylcellulose) (HPC)",4 of 6
same,T/C,"dose: 75.0 mg/kg/injection, schedule: Q01DX009 (ip), vehicle: carboxymethylcellulose (CMC)",126 % of control [5 of 6 alive]
same,survivor count,[7],5 of 6
same,survivor count,"dose: 112.5 mg/kg/injection, schedule: Q01DX009 (ip), vehicle: Klucel (hydroxypropylcellulose) (HPC)",0 of 6
same,survivor count,"dose: 150.0 mg/kg/injection, schedule: Q01DX001 (ip), vehicle: carboxymethylcellulose (CMC)",0 of 6
same,survivor count,[8],0 of 6
same,survivor count,"dose: 300.0 mg/kg/injection, schedule: Q01DX001 (ip), vehicle: carboxymethylcellulose (CMC)",0 of 6
same,survivor count,[9],0 of 6
[N-]=[N+]=NC1=CC(=O)C(N=[N+]=[N-])=CC1=O,T/C,"dose: 5.0 mg/kg/injection, schedule: Q01DX001 (ip), vehicle: saline",100 % of control
same,T/C,"dose: 10.0 mg/kg/injection, schedule: Q01DX001 (ip), vehicle: saline",97 % of control [4 of 6 alive]
same,survivor count,"dose: 20.0 mg/kg/injection, schedule: Q01DX001 (ip), vehicle: saline",0 of 6
same,survivor count,"dose: 40.0 mg/kg/injection, schedule: Q01DX001 (ip), vehicle: saline",0 of 6
same,survivor count,"dose: 80.0 mg/kg/injection, schedule: Q01DX001 (ip), vehicle: saline",0 of 6
same,survivor count,[10],0 of 4
same,survivor count,[11],0 of 4
same,survivor count,[12],0 of 4
O=C(O)CCC(=O)SCCCl,T/C,"dose: 50.0 mg/kg/injection, schedule: Q01DX001 (ip), vehicle: saline",86 % of control
same,T/C,[10],93 % of control
same,survivor count,[11],1 of 4
same,T/C,[12],93 % of control [3 of 4 alive]
C/C(=N\OC(C)([N+](=O)[O-])[N+](=O)[O-])[N+](=O)[O-],T/C,"dose: 25.0 mg/kg/injection, schedule: Q01DX009 (ip), vehicle: acetone",95 % of control [survivor count not shown]
same,T/C,"dose: 50.0 mg/kg/injection, schedule: Q01DX009 (ip), vehicle: acetone",95 % of control [survivor count not shown]
same,T/C,"dose: 100.0 mg/kg/injection, schedule: Q04DX003 (ip), vehicle: saline",105 % of control [survivor count not shown]
same,T/C,"dose: 200.0 mg/kg/injection, schedule: Q04DX003 (ip), vehicle: saline",93 % of control [survivor count not shown]
CCOC(=O)NNC(=O)NP(=O)(NC(=O)NOC)NC(=O)OCC (stereo not given),T/C,[10],106 % of control
same,T/C,[11],95 % of control
same,T/C,[12],95 % of control
O=CCc1ccc(N(CCCl)CCCl)cc1,T/C,"dose: 100.0 mg/kg/injection, schedule: Q01DX009 (ip), vehicle: Klucel (hydroxypropylcellulose) (HPC)",106 % of control [5 of 6 alive]
same,T/C,[7],101 % of control
same,T/C,"dose: 200.0 mg/kg/injection, schedule: Q01DX009 (ip), vehicle: Klucel (hydroxypropylcellulose) (HPC)",135 % of control
same,T/C,[8],102 % of control
same,T/C,"dose: 400.0 mg/kg/injection, schedule: Q01DX009 (ip), vehicle: Klucel (hydroxypropylcellulose) (HPC)",87 % of control
same,T/C,[9],109 % of control
NCCSP(=O)(O)O,T/C,[10],102 % of control
same,T/C,[11],98 % of control
same,T/C,[12],98 % of control
O=P(Cl)(Cl)Nc1ccccn1,T/C,"dose: 5.0 mg/kg/injection, schedule: Q01DX001 (ip), vehicle: carboxymethylcellulose (CMC)",100 % of control
same,T/C,"dose: 10.0 mg/kg/injection, schedule: Q01DX001 (ip), vehicle: carboxymethylcellulose (CMC)",98 % of control [3 of 4 alive]
same,survivor count,"dose: 20.0 mg/kg/injection, schedule: Q01DX001 (ip), vehicle: carboxymethylcellulose (CMC)",1 of 4
same,survivor count,"dose: 40.0 mg/kg/injection, schedule: Q01DX001 (ip), vehicle: carboxymethylcellulose (CMC)",0 of 4
same,survivor count,"dose: 50.0 mg/kg/injection, schedule: Q01DX001 (ip), vehicle: carboxymethylcellulose (CMC)",0 of 4
same,survivor count,"dose: 80.0 mg/kg/injection, schedule: Q01DX001 (ip), vehicle: carboxymethylcellulose (CMC)",0 of 4
same,survivor count,[1],1 of 4
same,survivor count,[2],0 of 4
same,survivor count,[3],0 of 4
Cc1c([N+](=O)[O-])cc([N+](=O)[O-])c(-c2c([N+](=O)[O-])cc([N+](=O)[O-])c(C)c2[N+](=O)[O-])c1[N+](=O)[O-],T/C,"dose: 100.0 mg/kg/injection, schedule: Q01DX009 (ip), vehicle: gum acacia",89 % of control [survivor count not shown]
same,T/C,"dose: 100.0 mg/kg/injection, schedule: Q04DX003 (ip), vehicle: gum acacia",98 % of control [survivor count not shown]
same,T/C,"dose: 200.0 mg/kg/injection, schedule: Q01DX009 (ip), vehicle: gum acacia",86 % of control [survivor count not shown]
same,T/C,"dose: 200.0 mg/kg/injection, schedule: Q04DX003 (ip), vehicle: gum acacia",95 % of control [survivor count not shown]
same,T/C,"dose: 400.0 mg/kg/injection, schedule: Q04DX003 (ip), vehicle: gum acacia",93 % of control [survivor count not shown]
O=C(C(=O)c1ccc([N+](=O)[O-])cc1[N+](=O)[O-])c1ccc([N+](=O)[O-])cc1[N+](=O)[O-],T/C,[10],100 % of control
same,T/C,[11],100 % of control
same,T/C,[12],94 % of control
CC(C)OP(OC(C)C)c1ccccc1,T/C,[4],106 % of control
same,T/C,[5],102 % of control
same,survivor count,[6],2 of 3
BrCCNc1ccccc1,T/C,[10],96 % of control
same,T/C,[11],96 % of control
same,T/C,[12],91 % of control [2 of 3 alive]
